From the supplement of paper PMC12819154, “High-throughput peptide-centric local stability assay extends protein–ligand identification to membrane proteins, tissues and bacteria” (Nature Structural & Molecular Biology, 2025)
The list shows a part of the results. Most entries show no effect beyond the scatter of the controls.

Protein sequences, listed by entry. Tags and fused reporters are not part of them. Lines headed by an entry give the natural chain unless they say otherwise; changes in a name come on top.
UniProt Q6NVH7: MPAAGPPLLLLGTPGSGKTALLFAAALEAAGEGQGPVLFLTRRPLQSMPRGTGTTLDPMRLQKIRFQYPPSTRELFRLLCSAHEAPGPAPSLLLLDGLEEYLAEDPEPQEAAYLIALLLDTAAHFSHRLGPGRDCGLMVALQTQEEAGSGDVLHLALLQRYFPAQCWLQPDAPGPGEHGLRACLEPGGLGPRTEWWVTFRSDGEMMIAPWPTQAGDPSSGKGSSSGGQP
UniProt Q6ICL3: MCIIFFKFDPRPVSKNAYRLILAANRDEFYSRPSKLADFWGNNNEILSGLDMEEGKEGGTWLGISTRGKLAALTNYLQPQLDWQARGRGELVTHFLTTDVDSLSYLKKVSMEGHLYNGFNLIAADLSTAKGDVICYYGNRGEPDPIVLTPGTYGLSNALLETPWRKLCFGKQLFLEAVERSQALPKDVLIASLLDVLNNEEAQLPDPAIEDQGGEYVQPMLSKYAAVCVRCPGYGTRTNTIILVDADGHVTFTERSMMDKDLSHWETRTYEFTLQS
UniProt Q658Y4: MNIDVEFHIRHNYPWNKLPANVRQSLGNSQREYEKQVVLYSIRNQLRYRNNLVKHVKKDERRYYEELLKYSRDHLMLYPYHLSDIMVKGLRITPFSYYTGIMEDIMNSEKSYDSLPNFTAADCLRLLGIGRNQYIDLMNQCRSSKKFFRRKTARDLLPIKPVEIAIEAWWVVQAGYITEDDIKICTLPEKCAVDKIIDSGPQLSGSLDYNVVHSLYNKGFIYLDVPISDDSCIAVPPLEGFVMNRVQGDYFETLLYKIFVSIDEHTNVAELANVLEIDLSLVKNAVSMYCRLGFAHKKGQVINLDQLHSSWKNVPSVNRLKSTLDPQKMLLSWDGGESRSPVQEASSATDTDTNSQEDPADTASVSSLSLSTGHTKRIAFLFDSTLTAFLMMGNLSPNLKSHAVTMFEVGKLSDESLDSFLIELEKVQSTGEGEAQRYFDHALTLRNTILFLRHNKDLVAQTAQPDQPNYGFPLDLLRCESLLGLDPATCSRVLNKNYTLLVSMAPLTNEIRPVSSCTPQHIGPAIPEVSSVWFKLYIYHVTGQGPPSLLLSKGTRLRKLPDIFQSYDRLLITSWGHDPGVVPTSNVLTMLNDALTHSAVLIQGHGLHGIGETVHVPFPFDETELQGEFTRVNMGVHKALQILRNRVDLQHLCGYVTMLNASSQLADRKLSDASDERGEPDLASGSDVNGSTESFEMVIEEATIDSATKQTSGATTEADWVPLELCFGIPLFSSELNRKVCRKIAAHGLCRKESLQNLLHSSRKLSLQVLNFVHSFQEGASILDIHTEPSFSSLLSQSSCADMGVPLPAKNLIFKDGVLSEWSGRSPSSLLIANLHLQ
UniProt Q6P9F0: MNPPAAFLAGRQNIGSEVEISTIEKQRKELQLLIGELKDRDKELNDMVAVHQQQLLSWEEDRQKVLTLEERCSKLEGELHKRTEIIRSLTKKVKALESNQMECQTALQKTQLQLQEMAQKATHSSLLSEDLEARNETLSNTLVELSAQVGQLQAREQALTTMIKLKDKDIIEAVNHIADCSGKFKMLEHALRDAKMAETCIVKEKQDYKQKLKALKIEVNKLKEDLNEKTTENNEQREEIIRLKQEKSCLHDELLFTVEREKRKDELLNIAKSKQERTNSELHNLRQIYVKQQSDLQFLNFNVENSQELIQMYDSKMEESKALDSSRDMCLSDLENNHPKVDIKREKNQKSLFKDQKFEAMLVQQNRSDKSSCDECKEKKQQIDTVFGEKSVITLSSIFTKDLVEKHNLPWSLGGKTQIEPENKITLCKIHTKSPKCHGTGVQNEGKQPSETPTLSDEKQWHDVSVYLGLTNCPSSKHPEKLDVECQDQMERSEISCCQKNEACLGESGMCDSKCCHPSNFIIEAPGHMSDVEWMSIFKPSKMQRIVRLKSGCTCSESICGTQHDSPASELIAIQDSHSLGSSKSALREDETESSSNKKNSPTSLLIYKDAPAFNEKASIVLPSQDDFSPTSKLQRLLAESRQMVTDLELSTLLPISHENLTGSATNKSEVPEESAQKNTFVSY
UniProt Q6NXT1: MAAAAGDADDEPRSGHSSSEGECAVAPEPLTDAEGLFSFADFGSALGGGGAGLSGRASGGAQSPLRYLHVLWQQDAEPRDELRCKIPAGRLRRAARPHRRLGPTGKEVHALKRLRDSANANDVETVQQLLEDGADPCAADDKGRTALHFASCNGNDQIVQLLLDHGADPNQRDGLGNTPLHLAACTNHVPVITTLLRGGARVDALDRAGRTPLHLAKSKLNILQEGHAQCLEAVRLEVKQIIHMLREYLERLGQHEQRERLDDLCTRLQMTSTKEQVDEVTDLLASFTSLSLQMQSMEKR
UniProt Q68EA5: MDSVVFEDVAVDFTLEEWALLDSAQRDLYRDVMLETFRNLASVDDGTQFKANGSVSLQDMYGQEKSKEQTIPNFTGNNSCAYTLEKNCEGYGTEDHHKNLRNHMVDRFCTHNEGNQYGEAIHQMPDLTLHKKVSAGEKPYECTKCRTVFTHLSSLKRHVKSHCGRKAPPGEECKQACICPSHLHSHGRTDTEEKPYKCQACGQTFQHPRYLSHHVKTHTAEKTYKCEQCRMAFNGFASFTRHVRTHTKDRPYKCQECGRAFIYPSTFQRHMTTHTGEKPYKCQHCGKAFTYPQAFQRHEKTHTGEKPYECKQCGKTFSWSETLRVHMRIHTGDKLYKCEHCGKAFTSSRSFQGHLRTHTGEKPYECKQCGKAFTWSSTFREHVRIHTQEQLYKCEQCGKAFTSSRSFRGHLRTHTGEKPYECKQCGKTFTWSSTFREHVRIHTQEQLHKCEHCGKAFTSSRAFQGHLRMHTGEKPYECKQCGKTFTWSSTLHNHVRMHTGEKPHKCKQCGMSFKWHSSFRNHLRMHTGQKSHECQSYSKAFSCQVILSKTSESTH
UniProt Q6P6B7: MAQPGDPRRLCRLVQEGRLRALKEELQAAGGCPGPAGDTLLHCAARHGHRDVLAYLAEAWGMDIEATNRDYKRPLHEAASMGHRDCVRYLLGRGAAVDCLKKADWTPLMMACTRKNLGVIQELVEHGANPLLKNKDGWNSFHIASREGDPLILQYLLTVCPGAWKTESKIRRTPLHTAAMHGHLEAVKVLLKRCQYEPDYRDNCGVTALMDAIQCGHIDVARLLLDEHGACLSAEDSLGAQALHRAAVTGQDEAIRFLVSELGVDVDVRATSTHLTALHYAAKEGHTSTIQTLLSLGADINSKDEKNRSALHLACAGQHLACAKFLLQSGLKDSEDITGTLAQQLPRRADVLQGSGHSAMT
UniProt Q6R327, whole entry: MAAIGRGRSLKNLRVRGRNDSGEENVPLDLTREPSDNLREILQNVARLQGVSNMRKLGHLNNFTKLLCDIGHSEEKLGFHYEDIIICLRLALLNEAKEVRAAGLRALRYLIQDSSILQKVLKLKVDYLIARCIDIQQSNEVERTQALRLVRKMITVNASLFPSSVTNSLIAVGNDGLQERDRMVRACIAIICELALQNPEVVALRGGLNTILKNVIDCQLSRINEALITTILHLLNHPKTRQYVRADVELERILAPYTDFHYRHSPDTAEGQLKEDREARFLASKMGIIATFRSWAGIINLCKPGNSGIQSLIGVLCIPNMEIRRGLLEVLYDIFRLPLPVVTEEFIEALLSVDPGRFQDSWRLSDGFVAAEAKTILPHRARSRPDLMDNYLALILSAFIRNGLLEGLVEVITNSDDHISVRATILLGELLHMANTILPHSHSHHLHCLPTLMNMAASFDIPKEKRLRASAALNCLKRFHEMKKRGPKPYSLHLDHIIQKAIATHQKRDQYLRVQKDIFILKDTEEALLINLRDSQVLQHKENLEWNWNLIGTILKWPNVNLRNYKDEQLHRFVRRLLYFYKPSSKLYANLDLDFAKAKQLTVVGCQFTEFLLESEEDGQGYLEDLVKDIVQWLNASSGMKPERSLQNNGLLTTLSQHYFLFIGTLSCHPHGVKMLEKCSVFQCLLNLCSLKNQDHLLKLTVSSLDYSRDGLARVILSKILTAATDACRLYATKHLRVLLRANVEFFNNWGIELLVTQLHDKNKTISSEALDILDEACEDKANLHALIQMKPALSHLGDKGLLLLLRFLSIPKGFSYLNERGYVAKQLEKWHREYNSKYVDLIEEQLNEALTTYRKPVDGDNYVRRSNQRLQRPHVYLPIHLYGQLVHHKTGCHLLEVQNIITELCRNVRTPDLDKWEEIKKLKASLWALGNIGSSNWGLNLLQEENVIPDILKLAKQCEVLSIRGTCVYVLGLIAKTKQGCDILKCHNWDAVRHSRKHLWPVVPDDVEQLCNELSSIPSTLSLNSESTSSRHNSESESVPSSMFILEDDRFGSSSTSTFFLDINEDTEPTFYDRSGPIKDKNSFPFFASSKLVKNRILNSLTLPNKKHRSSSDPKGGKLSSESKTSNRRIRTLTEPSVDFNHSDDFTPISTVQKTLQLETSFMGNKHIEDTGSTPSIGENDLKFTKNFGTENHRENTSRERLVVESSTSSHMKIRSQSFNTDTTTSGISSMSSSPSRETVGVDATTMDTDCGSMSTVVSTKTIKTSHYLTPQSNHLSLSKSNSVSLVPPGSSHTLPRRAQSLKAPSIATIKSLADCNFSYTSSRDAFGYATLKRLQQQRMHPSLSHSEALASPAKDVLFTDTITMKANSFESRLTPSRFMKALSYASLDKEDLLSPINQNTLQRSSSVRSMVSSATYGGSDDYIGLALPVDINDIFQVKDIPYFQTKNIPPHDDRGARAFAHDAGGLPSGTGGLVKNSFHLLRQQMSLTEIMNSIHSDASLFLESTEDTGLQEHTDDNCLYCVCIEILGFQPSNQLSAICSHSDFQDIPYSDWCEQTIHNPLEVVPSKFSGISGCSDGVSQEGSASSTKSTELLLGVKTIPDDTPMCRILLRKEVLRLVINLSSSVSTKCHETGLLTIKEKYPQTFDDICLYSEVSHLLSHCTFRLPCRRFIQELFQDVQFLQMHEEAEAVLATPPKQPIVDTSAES
UniProt Q68DK7: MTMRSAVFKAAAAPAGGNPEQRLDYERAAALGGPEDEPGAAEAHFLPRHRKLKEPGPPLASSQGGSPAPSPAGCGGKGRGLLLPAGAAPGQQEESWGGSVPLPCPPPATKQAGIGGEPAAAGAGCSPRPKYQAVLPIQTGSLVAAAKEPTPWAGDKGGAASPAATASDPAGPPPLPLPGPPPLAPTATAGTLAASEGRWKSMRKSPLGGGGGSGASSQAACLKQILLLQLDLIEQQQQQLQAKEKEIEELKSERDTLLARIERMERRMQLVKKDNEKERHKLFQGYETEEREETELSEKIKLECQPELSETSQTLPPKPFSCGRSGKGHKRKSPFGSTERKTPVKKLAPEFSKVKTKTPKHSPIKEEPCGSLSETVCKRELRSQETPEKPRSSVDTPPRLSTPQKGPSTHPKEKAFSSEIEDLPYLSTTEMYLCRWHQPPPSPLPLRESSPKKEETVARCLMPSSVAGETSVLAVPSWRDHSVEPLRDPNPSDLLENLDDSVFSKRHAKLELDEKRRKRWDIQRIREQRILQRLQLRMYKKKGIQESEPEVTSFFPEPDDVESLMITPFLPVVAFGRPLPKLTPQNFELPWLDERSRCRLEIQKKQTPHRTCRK
UniProt Q6NXR4: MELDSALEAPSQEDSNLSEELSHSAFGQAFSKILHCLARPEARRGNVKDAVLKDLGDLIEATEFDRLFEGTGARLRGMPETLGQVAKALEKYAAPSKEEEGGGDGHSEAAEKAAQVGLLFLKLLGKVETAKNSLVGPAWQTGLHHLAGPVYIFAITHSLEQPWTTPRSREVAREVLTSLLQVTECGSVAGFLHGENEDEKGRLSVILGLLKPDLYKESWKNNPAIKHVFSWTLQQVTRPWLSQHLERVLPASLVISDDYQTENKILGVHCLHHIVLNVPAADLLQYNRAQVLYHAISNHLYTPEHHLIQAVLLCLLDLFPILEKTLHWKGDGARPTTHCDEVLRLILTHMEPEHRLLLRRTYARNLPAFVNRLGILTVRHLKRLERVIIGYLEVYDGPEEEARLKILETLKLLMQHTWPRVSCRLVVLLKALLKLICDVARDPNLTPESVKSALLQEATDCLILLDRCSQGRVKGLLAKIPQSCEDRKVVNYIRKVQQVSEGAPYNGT
UniProt Q6UX04: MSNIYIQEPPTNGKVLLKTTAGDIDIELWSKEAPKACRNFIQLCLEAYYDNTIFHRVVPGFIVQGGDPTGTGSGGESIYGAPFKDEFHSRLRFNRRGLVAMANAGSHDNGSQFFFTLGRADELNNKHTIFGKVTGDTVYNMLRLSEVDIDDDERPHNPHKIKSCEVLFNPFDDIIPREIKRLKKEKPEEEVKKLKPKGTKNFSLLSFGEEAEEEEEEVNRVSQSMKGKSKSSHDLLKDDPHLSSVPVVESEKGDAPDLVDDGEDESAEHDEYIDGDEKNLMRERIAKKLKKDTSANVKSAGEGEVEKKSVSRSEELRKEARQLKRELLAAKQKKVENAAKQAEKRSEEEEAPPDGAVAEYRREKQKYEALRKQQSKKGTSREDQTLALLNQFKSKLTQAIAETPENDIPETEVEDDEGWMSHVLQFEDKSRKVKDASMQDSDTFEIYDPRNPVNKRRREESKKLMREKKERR

Compound: CN[C@@H]1C[C@H]2O[C@@](C)([C@@H]1OC)n1c3ccccc3c3c4c(c5c6ccccc6n2c5c31)C(=O)NC4 [staurosporine]
Assay: log2 fold change of tryptic peptide abundance, ligand vs vehicle (limited proteolysis) (log2 ratio); higher = more trypsin-susceptible (destabilized)
Conditions: ligand concentration: 20 uM; sample: K562 cleared lysate; digestion: 4 min, 22 C (HT-PELSA RT4min, Orbitrap Astral)

Target	log2 fold change
RCSD1 (peptide sequence: EEKPAGEEAEMEK, peptide start residue: 301) (UniProt Q6JBY9)	-0.124
SWSAP1 (peptide sequence: GTGTTLDPMR, peptide start residue: 51) (UniProt Q6NVH7)	0.217
TYW3 (peptide sequence: FYNCLQHALER, peptide start residue: 188) (UniProt Q6IPR3)	-0.207
UniProt Q6ICL3 (peptide sequence: GDVICYYGNR, peptide start residue: 131)	-0.137
INTS5 (peptide sequence: MFHDSLAGGSGGR, peptide start residue: 316) (UniProt Q6P9B9)	0.12
FAM91A1 (peptide sequence: LSDASDER, peptide start residue: 670) (UniProt Q658Y4)	-0.362
HEATR6 (peptide sequence: HMGSIQAPTGDTARR, peptide start residue: 1138) (UniProt Q6AI08)	0.276
UniProt Q6P9F0 (peptide sequence: SALREDETESSSNK, peptide start residue: 585)	-1.02
ANKRD54 (peptide sequence: QIIHMLR, peptide start residue: 240) (UniProt Q6NXT1)	0.232
UniProt Q68EA5 (peptide sequence: TFTWSSTLHNHVR, peptide start residue: 484)	0.43
UniProt Q6S8J7 (peptide sequence: ANLNALDR, peptide start residue: 296)	0.0127
SAMD1 (peptide sequence: VKEWTPCGPHQGQDEGR, peptide start residue: 377) (UniProt Q6SPF0)	0.559
ELMSAN1 (peptide sequence: TVAQCVEFYYTYKK, peptide start residue: 863) (UniProt Q6PJG2)	0.433
THOC7 (peptide sequence: ELEHLSHIK, peptide start residue: 145) (UniProt Q6I9Y2)	-0.754
ANKRD16 (peptide sequence: KADWTPLMMACTR, peptide start residue: 102) (UniProt Q6P6B7)	0.362
MAST2 (peptide sequence: QHPFFTGLDWTGLLR, peptide start residue: 781) (UniProt Q6P0Q8)	-0.432
KAZN (peptide sequence: VQLAQKEQELAR, peptide start residue: 122) (UniProt Q674X7)	-0.272
NAIF1 (peptide sequence: SQEVQACAQER, peptide start residue: 260) (UniProt Q69YI7)	0.971
RICTOR (peptide sequence: DVLFTDTITMK, peptide start residue: 1357) (UniProt Q6R327)	0.343

Target	log2 fold change
FBXO38 (peptide sequence: LSHVLLVSESEVAK, peptide start residue: 875) (UniProt Q6PIJ6)	0.166
UniProt Q68CL5 (peptide sequence: GPSGPSGPSTSSTSK, peptide start residue: 275)	0.136
ZFAND6 (peptide sequence: VGLTGFECR, peptide start residue: 156) (UniProt Q6FIF0)	-0.414
FBXL19 (peptide sequence: RKGPLPAGPPPEDVPGPPK, peptide start residue: 195) (UniProt Q6PCT2)	-0.222
UniProt Q64LD2 (peptide sequence: KKCEDCVVPYTPR, peptide start residue: 167)	0.369
MSL1 (peptide sequence: QAGIGGEPAAAGAGCSPRPK, peptide start residue: 111) (UniProt Q68DK7)	-0.468
PRPF8 (peptide sequence: QRVESHFDLELR, peptide start residue: 675) (UniProt Q6P2Q9)	-0.175
ALKBH5 (peptide sequence: ILEMDKEENRR, peptide start residue: 339) (UniProt Q6P6C2)	-0.201
UniProt Q6UWH6 (peptide sequence: RLGILVVFSFIK, peptide start residue: 174)	0.364
UniProt Q6NXR4 (peptide sequence: KVVNYIR, peptide start residue: 488)	0.431
UniProt Q6PJ21 (peptide sequence: APVSDPQAATSAHPSSR, peptide start residue: 326)	0.667
UniProt Q6UX04 (peptide sequence: SEEEEAPPDGAVAEYR, peptide start residue: 346)	-0.365
DHRS13 (peptide sequence: VVVVASAAHCR, peptide start residue: 165) (UniProt Q6UX07)	-0.679
UniProt Q6NW29 (peptide sequence: KLADKTDHK, peptide start residue: 155)	-0.348
WDR59 (peptide sequence: LLDPANTQQFDDFKK, peptide start residue: 850) (UniProt Q6PJI9)	0.192
OTUD7B (peptide sequence: NMGGLMHSK, peptide start residue: 520) (UniProt Q6GQQ9)	1.52
UniProt Q6PI47 (peptide sequence: VLLSDKKPTPQR, peptide start residue: 364)	0.363
MAP1S (peptide sequence: AVPMAPAPASPGSSNDSSAR, peptide start residue: 750) (UniProt Q66K74)	-0.33

2 entries from above, as a markdown table:

| Target | log2 fold change |
| --- | --- |
| UniProt Q64LD2 (peptide sequence: KKCEDCVVPYTPR, peptide start residue: 167) | 0.369 |
| UniProt Q6NW29 (peptide sequence: KLADKTDHK, peptide start residue: 155) | -0.348 |
